Results are given in words; binding and its absence hold for the method and conditions named. Some entries that bind do so weakly or less than the wild type.
What was measured:
Test in all cases: SEC
p110γ R1021P = p110γ R1021P (UniProt P48736)
[1] = biological target: p110γ, wild type (catalytic subunit of PI3Kγ, encoded by PIK3CG) (UniProt P48736)
p110γ R1021C = p110γ R1021C (UniProt P48736)

Chains of the proteins cited; added tags and fusions are not shown. Lines headed by an entry give the natural chain unless they say otherwise; changes in a name come on top.
UniProt P48736, whole entry: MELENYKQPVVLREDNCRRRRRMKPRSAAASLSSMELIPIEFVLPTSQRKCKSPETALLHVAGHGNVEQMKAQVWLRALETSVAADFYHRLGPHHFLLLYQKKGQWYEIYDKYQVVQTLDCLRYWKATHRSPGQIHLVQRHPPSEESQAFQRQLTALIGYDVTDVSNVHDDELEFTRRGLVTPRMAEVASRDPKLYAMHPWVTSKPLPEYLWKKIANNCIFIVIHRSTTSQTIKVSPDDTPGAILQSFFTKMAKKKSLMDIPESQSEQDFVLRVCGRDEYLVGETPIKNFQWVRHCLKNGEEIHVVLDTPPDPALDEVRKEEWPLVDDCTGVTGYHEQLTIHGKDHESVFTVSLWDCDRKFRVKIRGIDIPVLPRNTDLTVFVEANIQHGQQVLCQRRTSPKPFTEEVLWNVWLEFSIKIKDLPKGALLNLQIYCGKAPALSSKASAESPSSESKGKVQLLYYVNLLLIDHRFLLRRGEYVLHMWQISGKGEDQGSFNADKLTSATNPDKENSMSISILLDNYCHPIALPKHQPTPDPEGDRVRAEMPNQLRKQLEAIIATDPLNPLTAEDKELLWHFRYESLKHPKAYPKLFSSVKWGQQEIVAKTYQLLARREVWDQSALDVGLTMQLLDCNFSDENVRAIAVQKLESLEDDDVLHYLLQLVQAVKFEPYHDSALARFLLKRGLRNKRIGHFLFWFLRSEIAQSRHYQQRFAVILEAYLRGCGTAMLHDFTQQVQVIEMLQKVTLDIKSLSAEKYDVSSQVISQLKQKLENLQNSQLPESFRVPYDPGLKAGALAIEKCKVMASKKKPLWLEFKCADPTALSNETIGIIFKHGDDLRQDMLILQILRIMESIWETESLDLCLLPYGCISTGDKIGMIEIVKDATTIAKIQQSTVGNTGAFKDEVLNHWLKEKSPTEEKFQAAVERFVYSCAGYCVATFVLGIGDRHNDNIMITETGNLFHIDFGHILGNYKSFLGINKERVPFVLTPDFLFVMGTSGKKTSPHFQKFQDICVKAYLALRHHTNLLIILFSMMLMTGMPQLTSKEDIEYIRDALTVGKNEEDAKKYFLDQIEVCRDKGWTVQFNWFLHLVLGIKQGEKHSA

Measured: binding

B1: p101 regulatory subunit of PI3Kγ (protein, UniProt O02696 1-877)
chain: MQPGATTCTEDRIQHALERCLHGLSLSRRSTSWSAGLCLNCWSLQELVSRDPGHFLILLEQILQKTREVQEKGTYDLLAPLALLFYSTVLCTPHFPPDSDLLLKAARTYHRFLTWPVPYCSICQELLTFIDAELKAPGISYQRLVRAEQGLSTRSHRSSTVTVLLLNPVEVQAEFLDVADKLSTPGPSPHSAYITLLLHAFQATFGAHCDLSGLHRRLQSKTLAELEAIFTETAEAQELASGIGDAAEARQWLRTKLQAVGEKAGFPGVLDTAKPGKLRTIPIPVARCYTYSWNQDSFDILQEILLKEQELLQPEILDDEEDEDEEDEEEDLDADGHCAERDSVLSTGSAASHASTLSLASSQASGPTLSRQLLTSFVSGLSDGVDSGYMEDIEESAYERPRRPGGHERRGHRRPGQKFNRIYKLFKSTSQMVLRRDSRSLEGSPDSGPPLRRAGSLCSPLDSPTLPPSRAQGSRSLPQPKLSPQLPGWLLAPASRHQRRRPFLSGDEDPKASTLRVVVFGSDRISGKVVRAYSNLRRLENNRPLLTRFFKLQFFYVPVKRSRGTGTPTSPAPRSQTPPLPTDAPRHPGPAELGAAPWEESTNDISHYLGMLDPWYERNVLGLMHLPPEVLCQSLKAEPRPLEGSPAQLPILADMLLYYCRFAARPVLLQVYQTELTFITGEKTTEIFIHSLELGHSAATRAIKASGPGSKRLGIDGDREAVPLTLQIIYSKGAISGRSRWSNMEKLCTSVNLSKACRQQEELDSSTEALTLNLTEVVKRQTPKSKKGFNQISTSQIKVDKVQIIGSNSCPFAVCLDQDERKILQSVIRCEVSPCYKPEKSSLCPPPQRPSYPPAPATPDLCSLLCLPIMTFSGALP
binds: p110γ R1021P | [1] | p110γ R1021C

Source: doi:10.1101/2020.12.01.406264
